Values quoted from earlier work in patent US20210388002A1, “DIMETHOXYBENZENE COMPOUND ANALOGS, METHODS FOR ANALYZING SAID COMPOUNDS AND STANDARD PRODUCTS OF SAID COMPOUNDS” (TAIHO PHARMACEUTICAL CO., LTD., priority 2018, published 2021).

Assays:
[1] = test system: fibroblast growth factor receptor (FGFR); conditions: background statement, PTL 1 to 5; cited from earlier work
[2] = background statement, PTL 1 to 5; cited from earlier work

In the case of `C=CC(=O)N1CC[C@H](n2nc(C#Cc3cc(OC)cc(OC)c3)c3c(N)ncnc32)C1` [compound A, (S)-1-(3-(4-amino-3-((3,5-dimethoxyphenyl)ethynyl)-1H-pyrazolo[3,4-d]pyrimidin-1-yl)pyrrolidin-1-yl)-2-propen-1-one], the “inhibitory activity on the fibroblast growth factor receptor (FGFR)” value [1] is listed as “excellent inhibitory activity” and the antitumor activity [2] is listed as “exhibiting antitumor activity”.
